Measurements reported in PubChem BioAssay AID1117269 (University of Michigan, 2014)

Screen: 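Which kinase knockdowns increase BTR reporter light after TGF-beta stimulation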 (primary screen)
System: human A549 lung cancer and 1833 breast cancer (MDA-MB-231-derived) cell lines carrying a stable BTR luciferase reporter
Knock-down reagent: siRNA pool against human genes
Time to read-out: 72 h after transfection, then 1 h TGF-beta before the read
Treatment: TGF-beta 10 ng/mL added one hour before luciferin and read-out
Read-out: 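Live-cell BTR luciferase signal at 72 h after transfection and 1 h of TGF-beta at 10 ng/mL, fold versus scrambled siRNA, triplicate mean for each line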
Direction: fold over scrambled siRNA, A549 and fold over scrambled siRNA, 1833: higher = more reporter light, weaker TGF-beta receptor signalling
Hit rule: 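Hit in either line counts as active; per-line hits lie above an upper limit from quartiles of averaged log fold values, in plate and screen-wide analyses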
Calls: active = hit in at least one line; inactive = hit in neither line
This is an unselected part of 714 reagents. 49 of them (6.9%) count as active. 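Active means a hit in at least one line; per-line hit columns show which; some siRNA pools appear more than once.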 A reagent listed more than once was tested more than once; the source does not tell the runs apart. Not given: the amount of reagent.

gene,"fold over scrambled siRNA, A549","fold over scrambled siRNA, 1833",hit in A549,hit in 1833,call
KSR1,3.52,5.63,not a hit in A549,not a hit in 1833,inactive
ABL2,3.43,6.97,not a hit in A549,not a hit in 1833,inactive
MAPK15,1.25,1.33,not a hit in A549,not a hit in 1833,inactive
IRAK1,1.52,1.33,not a hit in A549,not a hit in 1833,inactive
IKBKE,0.672,1.44,not a hit in A549,not a hit in 1833,inactive
PAK1,0.648,1.6,not a hit in A549,not a hit in 1833,inactive
DDR2,1.69,7.07,not a hit in A549,not a hit in 1833,inactive
PDGFRB,1.09,0.589,not a hit in A549,not a hit in 1833,inactive
ULK1,3.14,5.9,not a hit in A549,not a hit in 1833,inactive
BCR,0.474,1.23,not a hit in A549,not a hit in 1833,inactive
TRIB2,2.29,4.51,not a hit in A549,not a hit in 1833,inactive
NEK3,1.1,3.48,not a hit in A549,not a hit in 1833,inactive
LATS2,2.07,5.1,not a hit in A549,not a hit in 1833,inactive
EPHA3,1.36,3.01,not a hit in A549,not a hit in 1833,inactive
DLG2,1.06,0.63,not a hit in A549,not a hit in 1833,inactive
PFKFB1,0.74,0.63,not a hit in A549,not a hit in 1833,inactive
UHMK1,2.47,6.29,not a hit in A549,not a hit in 1833,inactive
ACVR2A,1.61,2.07,not a hit in A549,not a hit in 1833,inactive
ITPK1,0.999,1.18,not a hit in A549,not a hit in 1833,inactive
SRPK2,1.14,5.1,not a hit in A549,not a hit in 1833,inactive
DLG3,2.74,4.4,not a hit in A549,not a hit in 1833,inactive
TESK1,2.05,3.22,not a hit in A549,not a hit in 1833,inactive
TSSK2,0.747,1.21,not a hit in A549,not a hit in 1833,inactive
ATR,0.714,1.2,not a hit in A549,not a hit in 1833,inactive
PRKD2,4,7.38,not a hit in A549,not a hit in 1833,inactive
TSSK6,0.51,0.407,not a hit in A549,not a hit in 1833,inactive
TSSK6,3.9,6.02,not a hit in A549,not a hit in 1833,inactive
CDKN1C,2,4.25,not a hit in A549,not a hit in 1833,inactive
STK32B,2.76,5.56,not a hit in A549,not a hit in 1833,inactive
PRPS1,1.08,2.36,not a hit in A549,not a hit in 1833,inactive
ATM,3.29,5.98,not a hit in A549,not a hit in 1833,inactive
PIP5KL1,3.19,5.08,not a hit in A549,not a hit in 1833,inactive
PIK3CA,1.46,1.6,not a hit in A549,not a hit in 1833,inactive
CAMK1,1.51,3.8,not a hit in A549,not a hit in 1833,inactive
GSK3A,1.06,4.14,not a hit in A549,not a hit in 1833,inactive
MAP2K3,0.723,3.27,not a hit in A549,not a hit in 1833,inactive
MYLK,1,8.05,not a hit in A549,not a hit in 1833,inactive
CSNK2A1,2.86,4.97,not a hit in A549,not a hit in 1833,inactive
IP6K1,1.17,2.39,not a hit in A549,not a hit in 1833,inactive
MAP3K2,1.95,4.57,not a hit in A549,not a hit in 1833,inactive
DGKD,2,2.76,not a hit in A549,not a hit in 1833,inactive
ATP23,1.19,5.43,not a hit in A549,not a hit in 1833,inactive
WNK2,2.24,2.34,not a hit in A549,not a hit in 1833,inactive
VRK2,1.1,1.49,not a hit in A549,not a hit in 1833,inactive
PAK2,1.93,1.44,not a hit in A549,not a hit in 1833,inactive
ACVRL1,3.67,6.93,not a hit in A549,not a hit in 1833,inactive
CDK3,0.762,2.29,not a hit in A549,not a hit in 1833,inactive
CDK19,1,4.87,not a hit in A549,not a hit in 1833,inactive
ELP1,1.72,3.1,not a hit in A549,not a hit in 1833,inactive
STK38L,4.05,4.66,not a hit in A549,not a hit in 1833,inactive
MAPK12,1.19,3.19,not a hit in A549,not a hit in 1833,inactive
STRADA,3.86,6.13,not a hit in A549,not a hit in 1833,inactive
STK40,0.644,1.68,not a hit in A549,not a hit in 1833,inactive
STK40,1.05,2.48,not a hit in A549,not a hit in 1833,inactive
ADK,0.905,1.92,not a hit in A549,not a hit in 1833,inactive
CKMT1B,1.13,1.4,not a hit in A549,not a hit in 1833,inactive
TPD52L3,2,42,not a hit in A549,hit in 1833,

A few values from above:
Entry of PDGFRB in “call”: inactive
Entry for STRADA under “fold over scrambled siRNA, A549”: 3.86
Result of DDR2 in “hit in A549”: not a hit in A549
For “fold over scrambled siRNA, A549”, PFKFB1 shows 0.74
GSK3A, hit in A549 = not a hit in A549
EPHA3, fold over scrambled siRNA, A549 → 1.36
